# According to the supplement of paper PMC11732987, “Enantioselective OTUD7B fragment discovery through chemoproteomics screening and high-throughput optimisation” (Communications Chemistry, 2025):
# This is one part of the list. The data scatter; read single values as rough.
# Legend:
# [1] = compound: ClCC(=O)N[C@@H]1CCCc2ccccc12; assay: log2 mean competition ratio of IA-DTB cysteine labelling (DMSO/compound) (log2 ratio); higher = stronger cysteine engagement by compound; conditions: treatment time: 4 h, cell line lysate: HEK293T
# Description: (§1)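 IA-DTB competitive cysteine chemoproteomics in HEK293T RIPA lysate. Lysates were treated with compound 29 or 30 at 50 or 200 µM for 4 h, then IA-DTB (500 µM, 1 h), trypsin-digested, NeutrAvidin-enriched and analysed by diaPASEF. Competition ratio = intensity DMSO / intensity compound (n=4 treated, n=64 DMSO); binding: mean log2 CR ≥ 1 and p ≤ 0.05 plus QC filters. Target is the cysteine site.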
# [2] = compound: ClCC(=O)N[C@H]1CCCc2ccccc12; assay: as above; conditions: treatment time: 4 h, cell line lysate: HEK293T
# Description: as §1
Target,log2 mean competition ratio ([1]; 50 µM),log2 mean competition ratio ([1]; 200 µM),log2 mean competition ratio ([2]; 50 µM),log2 mean competition ratio ([2]; 200 µM)
DNAJC2 C276 (UniProt Q99543),0.0307,-0.0705,–,–
DIS3 C213 (UniProt Q9Y2L1),-0.143,-0.293,–,–
DIPK1A C347 (UniProt Q5T7M9),0.0568,0.175,–,–
DNPH1 C117,-0.0479,0.547,–,–
DNAAF2 C762 (UniProt Q9NVR5),0.0154,-0.0859,–,–
DHX29 C990 (UniProt Q7Z478),-0.199,0.17,–,–
DHX34 C500 (UniProt Q14147),0.0484,0.202,–,–
DNM2 C86 (UniProt P50570),-0.00559,0.132,–,–
DENND4A C1579 (UniProt Q7Z401),0.114,0.236,–,–
DHX57 C453 (UniProt Q6P158),0.493,-0.314,–,–
DHCR7 C380 (UniProt Q9UBM7),0.0217,-0.165,–,–
DNAJC12 C41 (UniProt Q9UKB3),0.0331,-0.327,–,–
DHX40 C42 (UniProt Q8IX18),0.0814,-0.184,–,–
DIAPH3 C195 (UniProt Q9NSV4),0.398,0.254,–,–
DOHH C273 (UniProt Q9BU89),0.353,0.402,–,–
DNAJC13 C884 (UniProt O75165),-0.132,0.0967,–,–
DOLPP1 C86 (UniProt Q86YN1),0.476,-0.283,0.306,-0.38
DOHH C232 (UniProt Q9BU89),-0.0877,0.237,–,–
DNAJC13 C904 (UniProt O75165),0.0696,-0.467,–,–
DHCR24 C252 (UniProt Q15392),-0.00836,-0.178,–,–
DPP8 C611 (UniProt Q6V1X1),-0.239,0.262,-0.266,0.266
DHX57 C598 (UniProt Q6P158),-0.262,-0.111,–,–
DENND4C C126 (UniProt Q5VZ89),1.29,4.1,–,–
DNMT1 C1339 (UniProt P26358),-0.144,0.0334,–,–
DHX40 C153 (UniProt Q8IX18),0.149,0.536,–,–
DICER1 C1406 (UniProt Q9UPY3),-0.19,-0.243,–,–
DGKD C121,-0.128,0.0724,–,–
DNA2 C621 (UniProt P51530),-0.0686,-0.268,–,–

Target,log2 mean competition ratio ([1]; 50 µM),log2 mean competition ratio ([1]; 200 µM),log2 mean competition ratio ([2]; 50 µM),log2 mean competition ratio ([2]; 200 µM)
DNMT3A C340 (UniProt Q9Y6K1),0.0334,-0.185,–,0.0637
"DNAAF5_(C409,C409,C420,C420) (UniProt Q86Y56)",-0.199,0.067,–,-0.126
DMXL2 C1788 (UniProt Q8TDJ6),-0.139,0.451,–,–
DNMT1 C41 (UniProt P26358),-0.121,0.0544,0.113,0.0841
DOCK11 C492,0.369,0.25,–,–
DOCK11 C797,-0.382,-0.0129,–,0.155
DMD C3319 (UniProt P11532),0.485,-0.128,–,–
DICER1 C1553 (UniProt Q9UPY3),-0.131,0.0545,–,–
DICER1 C1621 (UniProt Q9UPY3),0.133,0.0788,0.218,0.11
DNAJC7 C317 (UniProt Q99615),-0.115,-0.0235,–,–
DHX37 C680 (UniProt Q8IY37),0.0691,0.0721,–,–
DPYD C671 (UniProt Q12882),-0.369,0.0126,–,–
DNAJC6 C382 (UniProt O75061),-0.0873,0.266,-0.233,0.207
DHX38 C865 (UniProt Q92620),-0.111,0.138,–,–
DICER1 C1641 (UniProt Q9UPY3),-0.0121,-0.122,–,0.00974
DHX29 C1059 (UniProt Q7Z478),0.0184,0.0553,-0.0869,0.00453
DNM1 C424 (UniProt Q05193),0.258,-0.485,–,–
DOHH C200 (UniProt Q9BU89),0.276,-0.0541,–,–
DHX16 C486 (UniProt O60231),-0.19,-0.0476,–,–
DHX57 C1349 (UniProt Q6P158),-0.0843,-0.146,-0.455,-0.192
DOP1A C2442 (UniProt Q5JWR5),0.204,-0.13,–,-0.103
DEPDC7 C129 (UniProt Q96QD5),0.142,0.195,–,–
DHX16 C450 (UniProt O60231),-0.121,-0.181,-0.0999,-0.0865
DOCK7 C608 (UniProt Q96N67),-0.22,-0.225,–,–
DNAJC6 C128 (UniProt O75061),0.0314,0.126,-0.187,-0.0647
DHX9 C1029 (UniProt Q08211),0.186,0.174,0.261,0.296
DMD C3229 (UniProt P11532),-0.00237,0.282,0.14,0.297

# An excerpt of these results, tab-delimited.
Target	log2 mean competition ratio ([1]; 50 µM)	log2 mean competition ratio ([1]; 200 µM)	log2 mean competition ratio ([2]; 50 µM)	log2 mean competition ratio ([2]; 200 µM)
DNAAF5_(C409,C409,C420,C420) (UniProt Q86Y56)	-0.199	0.067	–	-0.126
DMXL2 C1788 (UniProt Q8TDJ6)	-0.139	0.451	–	–
DNMT1 C41 (UniProt P26358)	-0.121	0.0544	0.113	0.0841
DOCK11 C492	0.369	0.25	–	–
